Reference: PubChem BioAssay AID220 (DTP/NCI, 2004)
The list does not hold the whole screen: its compounds were picked by chemical class. Not every dose and run of a compound is shown. T/C gives the treated animals as a percentage of the vehicle group. Schedules are NCI's codes, taken here to give the interval after Q, in days (D) or hours (H), and the number of doses after X. Some entries show no survivor count and are marked so; the dose need not have been tolerated. Some entries were tested several times; their values stand side by side, smallest first.

Test system: CD8F1 mice, subcutaneous mammary adenocarcinoma, T/C%
Experiment: NCI In Vivo Anticancer Drug Screen. Data for tumor model Mammary Adenocarcinoma CD8F1 (subcutaneous) in CD8F1
Conditions: higher T/C = larger tumour
Protocol: The antitumor activity of compounds was measured in mice bearing transplantable tumors. Survival or tumor size were measured and the results are expressed as the measurement made in the treated group (T) divided by the measurement made in the vehicle treated control group (C). The tumor model used in this assay is Mammary Adenocarcinoma CD8F1 (subcutaneous) in CD8F1

[1] = T/C endpoint: median tumor weight (est.), dose: 2.0 mg/kg/injection, schedule: Q07DX005 (ip), vehicle: saline, evaluated on day 30

For CC(=O)OC[C@]12C[C@H](OC(=O)CC(C)C)C(C)=C[C@H]1O[C@@H]1[C@H](O)[C@@H](O)[C@@]2(C)[C@@]12CO2, the T/C (T/C endpoint: median tumor weight (est.), dose: 0.25 mg/kg/injection, schedule: Q07DX005 (ip), vehicle: saline, evaluated on day 30) was 85 % of control [survivor count not shown], the T/C (T/C endpoint: median tumor weight (est.), dose: 1.0 mg/kg/injection, schedule: Q07DX005 (ip), vehicle: saline, evaluated on day 30) was 100 % of control [survivor count not shown] and the T/C (T/C endpoint: median tumor weight (est.), dose: 1.25 mg/kg/injection, schedule: Q07DX005 (ip), vehicle: saline, evaluated on day 30) was 108 % of control [survivor count not shown]. The T/C [1] was 35 [survivor count not shown] and 51 % of control [survivor count not shown], the T/C (T/C endpoint: median tumor weight (est.), dose: 2.5 mg/kg/injection, schedule: Q07DX005 (ip), vehicle: saline, evaluated on day 30) was 81 % of control [survivor count not shown] and the T/C (T/C endpoint: median tumor weight (est.), dose: 4.0 mg/kg/injection, schedule: Q07DX005 (ip), vehicle: saline, evaluated on day 30) was 32 [survivor count not shown] and 50 % of control [survivor count not shown]. The T/C (T/C endpoint: median tumor weight (est.), dose: 5.0 mg/kg/injection, schedule: Q07DX005 (ip), vehicle: saline, evaluated on day 30) was 35 % of control [survivor count not shown], the T/C (T/C endpoint: median tumor weight (est.), dose: 10.0 mg/kg/injection, schedule: Q07DX005 (ip), vehicle: saline, evaluated on day 30) was 34 % of control [survivor count not shown] and the T/C (T/C endpoint: median tumor weight change, dose: 1.0 mg/kg/injection, schedule: Q01DX001 (ip), vehicle: suspension in saline, evaluated on day 36) was 160 % of control [survivor count not shown]. For the same molecule, the T/C (T/C endpoint: median tumor weight change, dose: 2.0 mg/kg/injection, schedule: Q01DX001 (ip), vehicle: suspension in saline, evaluated on day 36) was 142 % of control [survivor count not shown], the T/C (T/C endpoint: median tumor weight change, dose: 4.0 mg/kg/injection, schedule: Q01DX001 (ip), vehicle: suspension in saline, evaluated on day 36) was 159 % of control [survivor count not shown] and the T/C (T/C endpoint: median tumor weight change, dose: 5.0 mg/kg/injection, schedule: Q01DX001 (ip), vehicle: saline, evaluated on day 32) was 34 % of control [survivor count not shown]. For the same molecule, the T/C (T/C endpoint: median tumor weight change, dose: 8.0 mg/kg/injection, schedule: Q01DX001 (ip), vehicle: suspension in saline, evaluated on day 36) was 200 % of control [survivor count not shown].
CC(=O)OCC12CCC(C)=CC1OC1C(O)C(OC(C)=O)C2(C)C12CO2 (stereo not drawn) was tested, and the T/C (T/C endpoint: mean tumor weight, dose: 0.5 mg/kg/injection, schedule: Q07DX005 (ip), vehicle: saline, evaluated on day 33) was 109 % of control [survivor count not shown], the T/C (T/C endpoint: mean tumor weight, dose: 1.0 mg/kg/injection, schedule: Q07DX005 (ip), vehicle: saline, evaluated on day 33) was 64 % of control [survivor count not shown] and the T/C (T/C endpoint: mean tumor weight, dose: 1.0 mg/kg/injection, schedule: Q07DX007 (ip), vehicle: saline, evaluated on day 44) was 80 % of control [survivor count not shown]. For the same molecule, the T/C (T/C endpoint: mean tumor weight, dose: 2.0 mg/kg/injection, schedule: Q07DX005 (ip), vehicle: saline, evaluated on day 33) was 47 % of control [survivor count not shown], the T/C (T/C endpoint: mean tumor weight, dose: 2.0 mg/kg/injection, schedule: Q07DX007 (ip), vehicle: saline, evaluated on day 44) was 22 % of control [survivor count not shown] and the T/C (T/C endpoint: median tumor weight (est.), dose: 0.5 mg/kg/injection, schedule: Q07DX005 (ip), vehicle: saline, evaluated on day 30) was 127 % of control [survivor count not shown]. The T/C [1] was 56 % of control [survivor count not shown], the T/C (T/C endpoint: median tumor weight (est.), dose: 8.0 mg/kg/injection, schedule: Q07DX005 (ip), vehicle: saline, evaluated on day 30) was 29 % of control [survivor count not shown] and the T/C (T/C endpoint: median tumor weight change, dose: 3.0 mg/kg/injection, schedule: Q01DX001 (ip), vehicle: Klucel (hydroxypropylcellulose) (HPC), evaluated on day 25) was 79 % of control [survivor count not shown]. The T/C (T/C endpoint: median tumor weight change, dose: 3.0 mg/kg/injection, schedule: Q01DX001 (ip), vehicle: Klucel (hydroxypropylcellulose) (HPC), evaluated on day 29) was 41 % of control [survivor count not shown], the T/C (T/C endpoint: median tumor weight change, dose: 3.0 mg/kg/injection, schedule: Q01DX001 (ip), vehicle: Klucel (hydroxypropylcellulose) (HPC), evaluated on day 34) was 40 % of control [survivor count not shown] and the T/C (T/C endpoint: median tumor weight change, dose: 6.0 mg/kg/injection, schedule: Q01DX001 (ip), vehicle: Klucel (hydroxypropylcellulose) (HPC), evaluated on day 25) was 61 % of control [survivor count not shown]. The T/C (T/C endpoint: median tumor weight change, dose: 6.0 mg/kg/injection, schedule: Q01DX001 (ip), vehicle: Klucel (hydroxypropylcellulose) (HPC), evaluated on day 29) was 93 % of control [survivor count not shown], the T/C (T/C endpoint: median tumor weight change, dose: 12.0 mg/kg/injection, schedule: Q01DX001 (ip), vehicle: Klucel (hydroxypropylcellulose) (HPC), evaluated on day 25) was 84 % of control [survivor count not shown] and the T/C (T/C endpoint: median tumor weight change, dose: 12.0 mg/kg/injection, schedule: Q01DX001 (ip), vehicle: Klucel (hydroxypropylcellulose) (HPC), evaluated on day 29) was 74 % of control [survivor count not shown]. For the same molecule, the T/C (T/C endpoint: median tumor weight change, dose: 12.0 mg/kg/injection, schedule: Q01DX001 (ip), vehicle: Klucel (hydroxypropylcellulose) (HPC), evaluated on day 34) was 29 % of control [survivor count not shown], the T/C (T/C endpoint: median tumor weight change, dose: 24.0 mg/kg/injection, schedule: Q01DX001 (ip), vehicle: Klucel (hydroxypropylcellulose) (HPC), evaluated on day 25) was 56 % of control [survivor count not shown] and the T/C (T/C endpoint: median tumor weight change, dose: 24.0 mg/kg/injection, schedule: Q01DX001 (ip), vehicle: Klucel (hydroxypropylcellulose) (HPC), evaluated on day 29) was 52 % of control [survivor count not shown].
With CC1=CC2OC3CC4OC(=O)/C=C/C=C/C(C(C)O)OCC(O)C(C)CC(=O)OCC2(CC1O)C4(C)C31CO1 (stereo not drawn) the T/C (T/C endpoint: median tumor weight (est.), dose: 0.15 mg/kg/injection, schedule: Q07DX005 (ip), vehicle: Klucel (hydroxypropylcellulose) (HPC), evaluated on day 30) was 118 % of control [survivor count not shown], the T/C (T/C endpoint: median tumor weight (est.), dose: 0.31 mg/kg/injection, schedule: Q07DX005 (ip), vehicle: Klucel (hydroxypropylcellulose) (HPC), evaluated on day 30) was 62 % of control [survivor count not shown] and the T/C (T/C endpoint: median tumor weight (est.), dose: 0.62 mg/kg/injection, schedule: Q07DX005 (ip), vehicle: Klucel (hydroxypropylcellulose) (HPC), evaluated on day 30) was 90 % of control [survivor count not shown]. The T/C (T/C endpoint: median tumor weight (est.), dose: 1.25 mg/kg/injection, schedule: Q07DX005 (ip), vehicle: Klucel (hydroxypropylcellulose) (HPC), evaluated on day 30) was 113 % of control [survivor count not shown].
For CC1=C[C@H]2O[C@@H]3C[C@H]4OC(=O)/C=C\C=C\C(C(C)O)OCC[C@@H](C)[C@H](O)C(=O)OC[C@@]2(CC1)[C@]4(C)[C@]31CO1 (stereo partly drawn), the T/C (T/C endpoint: median tumor weight change, dose: 0.18 mg/kg/injection, schedule: Q01DX001 (ip), vehicle: Klucel (hydroxypropylcellulose) (HPC), evaluated on day 29) was 89 % of control [survivor count not shown], the T/C (T/C endpoint: median tumor weight change, dose: 0.37 mg/kg/injection, schedule: Q01DX001 (ip), vehicle: Klucel (hydroxypropylcellulose) (HPC), evaluated on day 29) was 65 % of control [survivor count not shown] and the T/C (T/C endpoint: median tumor weight change, dose: 0.75 mg/kg/injection, schedule: Q01DX001 (ip), vehicle: Klucel (hydroxypropylcellulose) (HPC), evaluated on day 29) was 52 % of control [survivor count not shown]. For the same molecule, the T/C (T/C endpoint: median tumor weight change, dose: 1.5 mg/kg/injection, schedule: Q01DX001 (ip), vehicle: Klucel (hydroxypropylcellulose) (HPC), evaluated on day 29) was 49 % of control [survivor count not shown].
In the case of C=C(C)C(=O)OCC12CCC(C)=CC1OC1C(=O)C(OC(=O)C(=C)C)C2(C)C12CO2 (stereo not drawn), the T/C (T/C endpoint: median tumor weight change, dose: 2.5 mg/kg/injection, schedule: Q01DX001 (ip), vehicle: distilled water + Tween-80, evaluated on day 33) is reported as 40 % of control [survivor count not shown] and the T/C (T/C endpoint: median tumor weight change, dose: 5.0 mg/kg/injection, schedule: Q01DX001 (ip), vehicle: distilled water + Tween-80, evaluated on day 33) is reported as 81 % of control [survivor count not shown].
In the case of CC(=O)OC[C@]12C[C@H](OC(=O)CC(C)C)C(C)=C[C@H]1OC1[C@H](O)[C@@H](OC(C)=O)[C@@]2(C)[C@@]12CO2, the T/C (T/C endpoint: mean tumor weight, dose: 0.15 mg/kg/injection, schedule: Q07DX005 (ip), vehicle: saline, evaluated on day 33) is reported as 77 % of control [survivor count not shown], the T/C (T/C endpoint: mean tumor weight, dose: 0.3 mg/kg/injection, schedule: Q07DX005 (ip), vehicle: saline, evaluated on day 33) is reported as 100 % of control [survivor count not shown] and the T/C (T/C endpoint: mean tumor weight, dose: 1.2 mg/kg/injection, schedule: Q07DX005 (ip), vehicle: saline, evaluated on day 33) is reported as 95 % of control [survivor count not shown].
With C[C@@H](O)[C@H]1/C=C/C=C\C(=O)O[C@@H]2C[C@H]3O[C@@H]4[C@@H]5OC5(C)CCC4(COC(=O)[C@H]4O[C@]4(C)[C@@H](O)CO1)[C@]2(C)[C@]31CO1 (stereo partly drawn) the T/C (T/C endpoint: median tumor weight (est.), dose: 2.5 mg/kg/injection, schedule: Q07DX005 (ip), vehicle: saline + alcohol, evaluated on day 30) was 130 % of control [survivor count not shown] and the T/C (T/C endpoint: median tumor weight (est.), dose: 5.0 mg/kg/injection, schedule: Q07DX005 (ip), vehicle: saline + alcohol, evaluated on day 30) was 104 % of control [survivor count not shown].
With CC1=C[C@H]2O[C@@H]3C[C@H]4OC(=O)/C=C\C=C\C(C(C)O)OCC(O)C(C)CC(=O)OC[C@@]2(C[C@@H]1O)[C@]4(C)[C@@]31CO1 (stereo partly drawn) the T/C (T/C endpoint: median tumor weight (est.), dose: 0.75 mg/kg/injection, schedule: Q07DX004 (ip), vehicle: saline, evaluated on day 30) was 91 % of control [survivor count not shown] and the T/C (T/C endpoint: median tumor weight (est.), dose: 1.5 mg/kg/injection, schedule: Q07DX004 (ip), vehicle: saline, evaluated on day 30) was 108 % of control [survivor count not shown].
